# Some of the results follow. Values are raw readings; no control value is given beside them.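 In the initial screen, polymyxin B was used at a concentration that permeabilizes Salmonella's outer membrane but not its inner membrane. Maximum growth was set by DMSO wells with or without polymyxin B. Since plates varied, data were ranked per plate, and compounds giving the lowest OD600 advanced as hits.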
# Test system: Salmonella enterica serovar Typhimurium SL1344
# Assay: bacterial growth OD600 after 18 h with compound and polymyxin B; higher = more bacterial growth (less inhibition)
# Conditions: 50 µM, Mueller-Hinton broth
SMILES,bacterial growth OD600 (polymyxin B 0.75 µg/mL),bacterial growth OD600 (polymyxin B 1 µg/mL)
CCN1C(=O)CC(CC(=O)N2CC3CCC2C3)(c2cccc(C(F)(F)F)c2)C1=O (stereo not given),0.749,
CCCN1CCCN(c2ccc(C(=O)NCCCc3c(C)noc3C)cn2)CC1,,1.19
COc1ccccc1OCC(=O)NCC1CCCN(C(=O)CSc2ccccc2)C1 (stereo not given),,0.919
CN1C(=O)CC(CC(=O)N2CCCCC2c2nccs2)(c2ccc(-c3ccccc3)cc2)C1=O (stereo not given),-0.001,
COCCN1C(=O)CC(CC(=O)N(CCOC)C(C)C)(c2ccccc2OC)C1=O (stereo not given),0.815,
CC(=O)c1cc(CN2CCCCC2C(=O)Nc2ccc(-n3cccn3)cc2)cs1 (stereo not given),,0.986
Cc1c(C(C)NC(=O)c2ccc3c(c2)OCCO3)cnn1-c1ccccn1 (stereo not given),,0.963
COc1ccc(S(=O)(=O)NCC2CCCN(Cc3cnc(SC)nc3)C2)cc1 (stereo not given),,0.772
CCN1CCN(C(=O)c2cnn(-c3nccc(-c4cccc(OC)c4)n3)c2C2CC2)CC1,0.925,
COc1ccc(C(=O)NC2CC(=O)N(CCCc3ccccc3)C2)cc1 (stereo not given),,0.922
O=C(c1cn(Cc2ccccc2Cl)nn1)N1CCSCC1,,1.1
COc1cccc(CCNC2CCN(c3ccc(NC(=O)c4ccc(C)cc4C)cc3)CC2)c1,0.807,
COC(=O)c1cccc(-c2cc(Cl)c3c(c2)CC(CNC(=O)Cn2nc(C)nc2C)O3)c1 (stereo not given),0.807,
Cc1ccc(OCc2cc(C(=O)NCCN3CCCCC3=O)no2)cn1,,0.996
O=C(NCC1(O)CCCCC1)c1cc(COc2cccc(F)c2)[nH]n1,,1.01
COc1cc2c(cc1CN1CC[C@@H](N3CCN(c4ccccn4)CC3)[C@H](O)C1)OCO2,,0.869
CN(C)S(=O)(=O)Nc1ccc(N2CCC(NCc3ccc(OC(F)(F)F)cc3)CC2)cc1,0.751,
O=C(C1CCCN(c2nc3nonc3nc2N2CCSCC2)C1)N1CCOCC1 (stereo not given),0.795,
CSc1ccccc1C(=O)NCc1c(C)ncc2c1CCN(C(=O)c1ccc(F)cc1Cl)C2,0.782,
COCc1ccc(C(=O)NCc2c(C)ncc3c2CCN(C(=O)c2cccc(C(F)(F)F)c2)C3)o1,0.831,

# Reprinted from the results shown, 2 compounds:
SMILES,bacterial growth OD600 (polymyxin B 0.75 µg/mL),bacterial growth OD600 (polymyxin B 1 µg/mL)
O=C(C1CCCN(c2nc3nonc3nc2N2CCSCC2)C1)N1CCOCC1 (stereo not given),0.795,
CSc1ccccc1C(=O)NCc1c(C)ncc2c1CCN(C(=O)c1ccc(F)cc1Cl)C2,0.782,

# Reference: the supplement of paper PMC12889115
